This is one part of the list. These are raw signals, not scaled to a control.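 Primary screen: polymyxin B was added at a level permeabilizing Salmonella outer membranes while sparing inner membranes. DMSO wells, both with and without polymyxin B, established maximum growth. Plate-to-plate variation meant each plate was ranked on its own, and the lowest-OD600 compounds were selected as hits.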
Tested on: Salmonella enterica serovar Typhimurium SL1344
Assay: bacterial growth OD600 after 18 h with compound and polymyxin B; higher = more bacterial growth (less inhibition)
Details: 50 µM, Mueller-Hinton broth

| SMILES | bacterial growth OD600 (polymyxin B 0.75 µg/mL) | bacterial growth OD600 (polymyxin B 1 µg/mL) |
| --- | --- | --- |
| COc1ccc(OC2CCN(C(=O)C3CC3)CC2)c(C(=O)NC2CCCc3ccccc32)c1 (stereo not given) | 0.621 | – |
| CCNC(=O)c1sc2ncnc(NCCc3ccccn3)c2c1C | 1.02 | – |
| Cc1cnccc1CN(C)C(=O)CC(c1cccc(O)c1)c1cccc(Cl)c1 (stereo not given) | – | 0.006 |
| COCCN1CC(C(=O)NCc2csc(-c3ccccc3)n2)CCC1=O (stereo not given) | – | 0.851 |
| COCCN1CC(C(=O)NCC2(O)CCCCC2)CCC1=O (stereo not given) | – | 1.1 |
| Cc1cc2nc(N3CCC(C(=O)NC4CCCCCC4)CC3)nc(C)c2cc1C | 0.009 | – |
| CN(CCC1CCOCC1)C(=O)c1cc(Cn2ccc3ccccc32)[nH]n1 | 0.801 | – |
| COCc1noc(-c2ccc(N(C)CC3CCOCC3)nc2)n1 | – | 0.843 |
| CCn1nc(C)c(CN2CCC3(CC2)c2ccccc2[C@@H](NC(=O)c2ccco2)[C@@H]3OC)c1C | 0.778 | – |
| Cc1cc(CNC2CCN(c3ccc(C(=O)NCCN4CCOCC4)cc3)CC2)nn1C | 0.907 | – |
| CC(C)(O)C#Cc1ccc(C(=O)N2CCCC(C(=O)c3ccc4c(c3)OCO4)C2)o1 (stereo not given) | – | 0.837 |
| CCN1CCN(C(=O)c2ccc(N3CCC(N4CCOc5ccc(Cl)cc5C4)CC3)cc2)CC1 | 0.793 | – |
| CC(C)CN1CCC(C(=O)Nc2ccc(Oc3ccccc3F)cc2)CC1 | – | 0.885 |
| CC(C)CN(CC1CCN(C2Cc3ccccc3C2)CC1)CC1CCCO1 (stereo not given) | – | 0.738 |
| COCCO[C@H]1[C@H](NC(=O)C(C)C)c2ccccc2C12CCN(C(=O)c1cccc(F)c1F)CC2 | 0.819 | – |
| CCCS(=O)(=O)N1CCC(C2CCN(c3ncccn3)CC2)C1 (stereo not given) | 0.847 | – |
| O=C(c1ccccn1)N1CCCC(CCc2c(F)cccc2F)C1 (stereo not given) | 0.847 | – |
| CO[C@H]1[C@H](NC(=O)c2ccco2)c2ccccc2C12CCN(Cc1cc(C(C)C)[nH]n1)CC2 | 0.963 | – |
| CC(NC(=O)CCC1(Cc2ccc3ccccc3c2)CCC(=O)N1)c1cnn(-c2ccccc2)c1 (stereo not given) | 0.768 | – |
| CC(C)c1ccc(NC2CCCN(C(=O)C3=NN(C)C(=O)CC3)C2)cc1 (stereo not given) | – | 1.04 |
| COc1ccc(-c2nn(-c3ccccc3F)cc2CN2CCC[C@H]2CO)cc1 | – | 0.901 |
| COCCC(=O)Nc1cc(C(=O)NC2CCS(=O)(=O)C2)cc2nc(-c3ccccc3)n(C)c12 (stereo not given) | 0.824 | – |
| O=C(c1ccc(N2CCCOCC2)nc1)N1CCC(CCn2cccn2)CC1 | 0.965 | – |
| COC(=O)C1CCCCN1Cc1nc(N(C)Cc2ccc(OC)c(OC)c2)c2ccccc2n1 (stereo not given) | 0.586 | – |
| CC(C)Oc1ccc(C(=O)NCC2Cc3c(F)ccc(-c4ccncc4)c3O2)cc1 (stereo not given) | 0.616 | – |
| O=C1NCCN1CCNC1CCN(c2ccc(C(=O)N3CCc4ccccc4C3)cc2)CC1 | 0.876 | – |
| O=C(CCc1nnc(-c2ccc(-c3ccccc3)cc2)o1)N1CCCCCCC1 | -0.001 | – |
| Cc1cc(CN(C)C(=O)C2CCC(=O)N(CCc3cccc(F)c3)C2)on1 (stereo not given) | – | 0.814 |
| COc1ccc(CN2CCN(Cc3ccc(F)cc3F)CC2CCO)c(C)c1C (stereo not given) | – | 0.915 |
| CCOC(=O)C1(Cc2ccccc2C(F)(F)F)CCN(C(=O)C2=C(C)OCCO2)CC1 | – | 1 |

Shown with bars between the fields: entries from further up.
SMILES | bacterial growth OD600 (polymyxin B 0.75 µg/mL) | bacterial growth OD600 (polymyxin B 1 µg/mL)
COCCN1CC(C(=O)NCc2csc(-c3ccccc3)n2)CCC1=O (stereo not given) | – | 0.851
COCCN1CC(C(=O)NCC2(O)CCCCC2)CCC1=O (stereo not given) | – | 1.1
Cc1cc2nc(N3CCC(C(=O)NC4CCCCCC4)CC3)nc(C)c2cc1C | 0.009 | –
CN(CCC1CCOCC1)C(=O)c1cc(Cn2ccc3ccccc32)[nH]n1 | 0.801 | –
COCc1noc(-c2ccc(N(C)CC3CCOCC3)nc2)n1 | – | 0.843
CCn1nc(C)c(CN2CCC3(CC2)c2ccccc2[C@@H](NC(=O)c2ccco2)[C@@H]3OC)c1C | 0.778 | –
Cc1cc(CNC2CCN(c3ccc(C(=O)NCCN4CCOCC4)cc3)CC2)nn1C | 0.907 | –
CC(C)(O)C#Cc1ccc(C(=O)N2CCCC(C(=O)c3ccc4c(c3)OCO4)C2)o1 (stereo not given) | – | 0.837
CCN1CCN(C(=O)c2ccc(N3CCC(N4CCOc5ccc(Cl)cc5C4)CC3)cc2)CC1 | 0.793 | –
